This note sets out measurements from PMC11180911.

Amino acid sequences for entries named in this document (tags omitted). A change or cut given only in a name is not applied to a line headed by its entry.
UniProt P15291: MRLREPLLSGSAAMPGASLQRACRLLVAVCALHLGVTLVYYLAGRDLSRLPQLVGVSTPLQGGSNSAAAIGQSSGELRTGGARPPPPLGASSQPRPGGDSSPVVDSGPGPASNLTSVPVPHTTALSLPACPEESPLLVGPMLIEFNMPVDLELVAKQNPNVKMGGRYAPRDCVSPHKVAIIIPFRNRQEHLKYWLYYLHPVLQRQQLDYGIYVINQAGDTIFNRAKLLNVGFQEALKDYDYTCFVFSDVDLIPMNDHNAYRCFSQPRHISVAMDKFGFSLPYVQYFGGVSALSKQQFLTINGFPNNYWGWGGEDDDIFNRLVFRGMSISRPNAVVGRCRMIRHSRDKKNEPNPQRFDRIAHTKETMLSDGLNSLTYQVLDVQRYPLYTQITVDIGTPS
UniProt P0A6F5: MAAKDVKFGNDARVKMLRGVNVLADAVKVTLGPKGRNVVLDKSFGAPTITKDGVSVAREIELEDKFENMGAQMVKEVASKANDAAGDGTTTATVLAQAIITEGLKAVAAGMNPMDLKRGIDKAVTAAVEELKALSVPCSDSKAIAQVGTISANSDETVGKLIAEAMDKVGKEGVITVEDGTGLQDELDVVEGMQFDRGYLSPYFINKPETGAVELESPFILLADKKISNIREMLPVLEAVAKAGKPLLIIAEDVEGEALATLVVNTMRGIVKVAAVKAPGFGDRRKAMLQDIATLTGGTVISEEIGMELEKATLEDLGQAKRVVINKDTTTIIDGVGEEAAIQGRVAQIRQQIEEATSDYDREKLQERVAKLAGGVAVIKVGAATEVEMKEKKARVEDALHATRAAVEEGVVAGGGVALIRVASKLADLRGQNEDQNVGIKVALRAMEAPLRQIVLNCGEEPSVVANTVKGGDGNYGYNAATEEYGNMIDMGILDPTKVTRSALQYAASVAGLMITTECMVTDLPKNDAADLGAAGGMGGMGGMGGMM

No constants are given. Whether binding was seen depends on the method and setting. In cells and extracts the contact can be indirect. A yes stands for co-enrichment or nearness to the bait. Other partners may have been found.

In experiment [1] the target is Human Beta-1,4-galactosyltransferase 1 (B4Galt1) (human) (UniProt P15291). In words: affinity purification with mass spectrometry; His-tagged POI produced with CyDisCo (strains not given; Fig. S7); soluble lysate on HisPur Cobalt resin; eluate on SDS-PAGE.
Experiment [2] shares this target. In words: affinity purification with mass spectrometry; His-tagged POI produced in SHuffle strains (SHuffle T7 Express, SHuffle T7) in rich autoinduction media; soluble lysate on HisPur Cobalt resin, gravity flow; eluate on SDS-PAGE; co-eluted band excised and identified by MALDI-TOF MS.

“molecular chaperone GroEL (from UniProt P0A6F5 1-548)”: the binding entry in experiment [1] and in experiment [2] was “binds” throughout.
